Reference: PMC5847874
Results are given in words; binding and its absence hold for the method and conditions named. For some assays here: Binding seen in cells or lysates may run through a third protein. Some binding calls cover weakened binding; strength is not graded here.

Chains of the proteins cited; added tags and fusions are not shown. Lines headed by an entry give the natural chain unless they say otherwise; changes in a name come on top. A line that says so, or that is headed by a name, gives the form on record, which may keep a tag or linker. Residues count along the entry.
UniProt Q9HAU4: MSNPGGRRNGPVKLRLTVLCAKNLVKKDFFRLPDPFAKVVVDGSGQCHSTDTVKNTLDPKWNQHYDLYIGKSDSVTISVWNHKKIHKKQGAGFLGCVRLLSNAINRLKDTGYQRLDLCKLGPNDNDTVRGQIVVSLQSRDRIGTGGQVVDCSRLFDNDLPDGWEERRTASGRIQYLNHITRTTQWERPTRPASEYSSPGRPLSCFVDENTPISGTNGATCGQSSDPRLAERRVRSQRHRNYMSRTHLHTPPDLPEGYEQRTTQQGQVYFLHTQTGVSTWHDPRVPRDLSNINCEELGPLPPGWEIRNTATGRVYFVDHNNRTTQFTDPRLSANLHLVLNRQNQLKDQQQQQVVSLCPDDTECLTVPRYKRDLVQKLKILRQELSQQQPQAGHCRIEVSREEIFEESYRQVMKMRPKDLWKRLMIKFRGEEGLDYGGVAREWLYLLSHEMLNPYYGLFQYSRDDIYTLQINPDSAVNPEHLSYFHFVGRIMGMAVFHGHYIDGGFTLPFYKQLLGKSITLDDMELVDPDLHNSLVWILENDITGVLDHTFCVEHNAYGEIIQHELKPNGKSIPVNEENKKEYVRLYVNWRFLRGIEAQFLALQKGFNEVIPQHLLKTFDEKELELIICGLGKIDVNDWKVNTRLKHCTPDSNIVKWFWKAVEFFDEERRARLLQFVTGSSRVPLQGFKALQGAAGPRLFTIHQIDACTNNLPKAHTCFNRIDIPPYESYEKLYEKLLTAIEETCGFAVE
lamin A (endogenous) (P02545, residues 1-646): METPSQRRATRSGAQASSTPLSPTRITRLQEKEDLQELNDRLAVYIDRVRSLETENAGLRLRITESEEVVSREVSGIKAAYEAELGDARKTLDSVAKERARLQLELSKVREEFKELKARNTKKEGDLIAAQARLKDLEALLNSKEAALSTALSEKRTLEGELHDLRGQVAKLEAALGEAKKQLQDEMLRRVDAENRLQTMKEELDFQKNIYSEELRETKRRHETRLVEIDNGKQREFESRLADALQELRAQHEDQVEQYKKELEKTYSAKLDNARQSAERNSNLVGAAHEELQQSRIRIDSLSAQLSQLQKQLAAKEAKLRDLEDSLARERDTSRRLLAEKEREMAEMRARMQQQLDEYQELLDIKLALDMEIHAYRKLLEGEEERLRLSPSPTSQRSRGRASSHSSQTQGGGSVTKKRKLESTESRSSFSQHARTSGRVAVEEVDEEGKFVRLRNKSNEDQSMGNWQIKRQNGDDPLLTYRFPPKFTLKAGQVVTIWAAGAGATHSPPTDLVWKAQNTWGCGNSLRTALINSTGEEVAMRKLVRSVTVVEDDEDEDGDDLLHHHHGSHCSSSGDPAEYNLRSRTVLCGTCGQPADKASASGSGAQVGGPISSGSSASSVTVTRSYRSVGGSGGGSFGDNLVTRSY
Flag–progerin (P02545-6, form named): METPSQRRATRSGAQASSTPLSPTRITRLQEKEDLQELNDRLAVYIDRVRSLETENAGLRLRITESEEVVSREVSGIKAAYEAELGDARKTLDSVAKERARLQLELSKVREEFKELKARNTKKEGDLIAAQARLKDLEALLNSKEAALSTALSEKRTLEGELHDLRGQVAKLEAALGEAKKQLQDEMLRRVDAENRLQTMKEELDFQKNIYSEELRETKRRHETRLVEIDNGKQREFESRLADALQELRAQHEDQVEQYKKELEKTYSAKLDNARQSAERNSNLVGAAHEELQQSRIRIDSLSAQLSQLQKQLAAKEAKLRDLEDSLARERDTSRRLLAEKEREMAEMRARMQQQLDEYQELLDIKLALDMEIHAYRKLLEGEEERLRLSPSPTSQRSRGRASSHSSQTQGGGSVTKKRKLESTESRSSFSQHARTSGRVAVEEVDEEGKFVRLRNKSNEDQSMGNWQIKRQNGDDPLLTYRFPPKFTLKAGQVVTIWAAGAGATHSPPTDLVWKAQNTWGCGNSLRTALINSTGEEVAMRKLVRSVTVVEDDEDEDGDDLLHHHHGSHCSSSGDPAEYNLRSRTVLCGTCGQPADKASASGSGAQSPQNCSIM

What was measured:
GST-Smurf2 = GST-Smurf2 (UniProt Q9HAU4); test: in vitro binding assay; purified GST-Smurf2 with purified Flag-lamin A or Flag-progerin; which was held is not told; both purified
Myc-Smurf2 = Myc-Smurf2 (UniProt Q9HAU4); test: proximity ligation; HEK-293T cells co-transfected with Flag-lamin A or Flag-progerin and Myc-Smurf2; Duolink In Situ Red kit with anti-Flag and anti-Myc antibodies; empty Myc vector as control
[1] = molecular target: Smurf2 (endogenous) (human (endogenous in HEK-293T)) (UniProt Q9HAU4); test: co-IP; endogenous proteins in HEK-293T lysates (different lysis conditions: 0.5% or 1% NP-40, freeze-thawing or RIPA buffer); anti-Smurf2 antibody (sc-25511) or rabbit IgG overnight at 4°C, protein G-Sepharose; blot for lamin A/C

binding (GST-Smurf2)	binding (Myc-Smurf2)	binding [1]	Substance
binds	binds	–	Flag–lamin A (from UniProt P02545 1-646)
binds	binds	–	Flag–progerin (from UniProt P02545-6 1-614)
–	–	binds	lamin A (endogenous) (from UniProt P02545 1-646)
